Data reported in patent US4610994A, “1,2,3-triazole anticonvulsant drugs” (priority 1984, dated 1986).

Tested on: not listed separately
Assay: loss of righting reflex (HD50) in mice i.p.
Type: in vivo, mice (male albino, CF No. 1)
Settings: not given

Going from `CCCC(CCC)C(=O)O` [Valproate] to `CCC1(C)CC(=O)NC1=O` (stereo not drawn) [Ethosuximide], the “Slope, regression line (HD50)” value rises from 12.46 to 16.43.

Going from `CCC1(c2ccccc2)C(=O)NC(=O)NC1=O` [Phenobarbital] to `O=C1NC(=O)C(c2ccccc2)(c2ccccc2)N1` [Phenytoin], the “Slope, regression line (HD50)” value rises from 8.41 to 14.03.

In the case of `Clc1ccc(-n2nncc2-c2cccnc2)cc1` [Compound 10, 1-(para-chlorophenyl)-5-(3-pyridyl)-1H-1,2,3-triazole], the “Slope, regression line (HD50)” value is reported as 20.18.

Tested on: maximal electroshock seizures
Assay: maximal electroshock seizure (MES) pattern test in mice
Settings: i.p.

With `Clc1ccc(-n2nncc2-c2cccnc2)cc1` [Compound 10, 1-(para-chlorophenyl)-5-(3-pyridyl)-1H-1,2,3-triazole] the “selectivity of effect (slope), resemblance, MES or sc Met tests” value was “does not resemble any of the prototype agents by either the MES or sc Met tests”.
